# Data taken from PubChem BioAssay (EPA / NIEHS).
# Protein sequences, listed by entry. Tags and fused reporters are not part of them. Lines headed by an entry give the natural chain unless they say otherwise; changes in a name come on top.
# UniProt P19793: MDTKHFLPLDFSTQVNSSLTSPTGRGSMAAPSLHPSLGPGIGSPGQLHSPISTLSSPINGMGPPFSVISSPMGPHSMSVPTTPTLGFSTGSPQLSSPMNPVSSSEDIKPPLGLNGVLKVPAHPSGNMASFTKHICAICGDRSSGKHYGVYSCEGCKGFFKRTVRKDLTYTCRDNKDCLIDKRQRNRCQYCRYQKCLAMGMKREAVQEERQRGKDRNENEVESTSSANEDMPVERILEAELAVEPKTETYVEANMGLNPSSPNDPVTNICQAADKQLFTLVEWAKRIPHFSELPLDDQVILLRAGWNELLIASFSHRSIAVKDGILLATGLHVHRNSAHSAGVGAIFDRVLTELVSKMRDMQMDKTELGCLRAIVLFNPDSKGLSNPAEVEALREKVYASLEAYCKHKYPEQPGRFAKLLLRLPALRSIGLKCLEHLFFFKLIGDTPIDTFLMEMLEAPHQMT
# UniProt P04637, whole entry, looked up: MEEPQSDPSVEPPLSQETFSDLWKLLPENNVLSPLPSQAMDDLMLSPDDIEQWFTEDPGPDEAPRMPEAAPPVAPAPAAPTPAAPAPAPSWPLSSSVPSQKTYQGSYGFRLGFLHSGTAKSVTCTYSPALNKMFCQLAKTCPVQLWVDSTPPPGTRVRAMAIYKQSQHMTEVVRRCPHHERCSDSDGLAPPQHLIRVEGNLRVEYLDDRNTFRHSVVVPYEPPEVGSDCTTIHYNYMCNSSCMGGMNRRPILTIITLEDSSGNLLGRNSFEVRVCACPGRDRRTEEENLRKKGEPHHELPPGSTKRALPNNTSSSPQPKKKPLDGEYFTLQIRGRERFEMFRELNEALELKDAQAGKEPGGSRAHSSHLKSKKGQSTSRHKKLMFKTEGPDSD
# Several values for one entry are separate records, joined by “and”; a condition that tells them apart may be missing. Equal values may be shown once. The inconclusive results got no clear call from the source; some entries with a clear call stand among them for comparison. Potencies of inconclusive entries are doubtful fits and often do not repeat. Activity calls are given as the source filed them. The calls were made as follows: active = hit-call score of the fitted dose curve at least 0.9, where 1 is the maximum; inconclusive = response in the unintended direction; inactive = score below 0.9.
# Experiments:
# [1] = biological target: Retinoic acid receptor RXR-alpha (Homo sapiens) (UniProt P19793); test: OT_NURR1_NURR1RXRa_0480: Odyssey Thera (OT) 8-hour HEK293T Protein Complementation Assay for Nurr1/retinoid X receptor (RXR) (AID 2283385)
# Method in brief: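 Interaction of Nurr1 with RXRα read as reconstituted reporter fluorescence in a HEK293T fragment-complementation system, 8 h post-treatment; increase over DMSO baseline analysed.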
# [2] = biological target: Retinoic acid receptor RXR-alpha (Homo sapiens) (UniProt P19793); test: OT_NURR1_NURR1RXRa_1440: Odyssey Thera (OT) 24-hour HEK293T Protein Complementation Assay for Nurr1/retinoid X receptor (RXR) (AID 2283386)
# Method in brief: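 Gain in fluorescence, fitted relative to DMSO, reflects Nurr1–RXRα association in HEK293T cells after 24 h dosing. Bait and prey are each linked to a reporter-protein fragment that reassembles on interaction.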
# [3] = Tanguay_ZF_120hpf_SNOU_legacy: (Legacy) Oregon State University Tanguay Lab 120 Hour Post-fertilization zebrafish Assay for Snout Malformation (AID 2283637)
# Method in brief: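 Binary snout-malformation call at 120 hpf in wild-type 5D embryos, chorion removed by pronase, under static exposure from 6 hpf at 28C (0.64% DMSO). Embryos dying by 24 or 120 hpf excluded.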
# [4] = ATG_XTT_Cytotoxicity: Cytotoxicity Assessment in the Attagene TRANS-FACTORIAL HepG2 Assay (AID 2283584);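 also: cells exposed to compound for 24 h before reading; active means loss of viability signal versus DMSO baseline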
# Method in brief: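 HepG2 human liver cells, transiently transfected with multiple GAL4-UAS reporter units, were dosed and read at 24 h by XTT as cell number. Loss of signal was fitted relative to DMSO negative control baseline.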
# [5] = TOX21_p53_BLA_p2_viability: Viability Assessment in the Tox21 HCT-116 p53 Agonism Beta-lactamase Assay, Phase 2 (AID 2283591);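 also: compound exposure lasted 16 h at 37 °C; actives lower the ATP signal meaning cytotoxicity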
# Method in brief: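 Cytotoxicity readout: CellTiter-Glo ATP luminescence, 30 min at room temperature, after the beta-lactamase read. Cells were HCT116 exposed 16 h at 37C to compounds pin-transferred at 217-fold dilution from DMSO stocks.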
# [6] = biological target: Cellular tumor antigen p53 (Homo sapiens) (UniProt P04637); test: TOX21_p53_BLA_p2_ratio: Tox21 HCT-116 p53 Agonism Beta-lactamase Assay, Ratio, Phase 2 (AID 2283592)
# Method in brief: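 Ratio endpoint: beta-lactamase cleavage of CCF4-AM, blue (460 nm) over green (530 nm). HCT116 reporter line; 16 h treatment, 37C; substrate 2 h RT.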
# [7] = TOX21_p53_BLA_p3_viability: Viability Assessment in the Tox21 HCT-116 p53 Agonism Beta-lactamase Assay, Phase 3 (AID 2283593);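 also: cells exposed to compound for 16 h before reading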
# Method in brief: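 Cellular ATP was quantified by CellTiter-Glo luminescence, read after 30 min at room temperature. Beforehand, HCT116 cells (4000/well) received compound 5 h post-seeding, 217-fold diluted from DMSO, then incubated 16 h at 37C.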
# [8] = TOX21_p53_BLA_p4_viability: Viability Assessment in the Tox21 HCT-116 p53 Agonism Beta-lactamase Assay, Phase 4 (AID 2283597);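 also: hits lower the luminescence signal meaning cytotoxicity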
# Method in brief: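 Cytotoxicity was inferred from loss of CellTiter-Glo luminescence. HCT116 cells had been dosed with compounds after 5 h plating, incubated 16 h at 37C and 5% CO2, and exposed to the CCF4-AM substrate for 2 h.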
# [9] = biological target: Cellular tumor antigen p53 (Homo sapiens) (UniProt P04637); test: TOX21_p53_BLA_p3_ratio: Tox21 HCT-116 p53 Agonism Beta-lactamase Assay, Ratio, Phase 3 (AID 2283596)
# Method in brief: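 Cells were seeded at 4000/well, rested 5 h at 37C, then dosed with DMSO compound solutions (217-fold dilution) for 16 h. CCF4-AM substrate was loaded for 2 h at room temperature, and the 460/530 nm emission ratio was fitted for gain of signal versus DMSO.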
# [10] = biological target: Cellular tumor antigen p53 (Homo sapiens) (UniProt P04637); test: TOX21_p53_BLA_p5_ratio: Tox21 HCT-116 p53 Agonism Beta-lactamase Assay, Ratio, Phase 5 (AID 2283599)
# Method in brief: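 Beta-lactamase reporter ratio (blue 460 nm over green 530 nm, 405 nm excitation) after 2 h CCF4-AM loading, in HCT-116 cells exposed 16 h at 37 C to compounds pinned at 217-fold dilution. Increases relative to DMSO baseline scored.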
# [11] = TOX21_p53_BLA_p5_viability: Viability Assessment in the Tox21 HCT-116 p53 Agonism Beta-lactamase Assay, Phase 5 (AID 2283600)
# Method in brief: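 Luciferase-coupled ATP quantitation of cells treated for 16 h (37C, 5% CO2) with test chemicals delivered in DMSO via a 217-fold dilution; 4000 cells/well; reagent incubated 30 min at room temperature before luminescence reading.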
# [12] = biological target: Cellular tumor antigen p53 (Homo sapiens) (UniProt P04637); test: TOX21_p53_BLA_p4_ratio: Tox21 HCT-116 p53 Agonism Beta-lactamase Assay, Ratio, Phase 4 (AID 2283601)
# Method in brief: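 Signal is the blue/green (460nm/530nm) ratio of cleaved versus uncleaved CCF4-AM substrate, read after 2 h substrate loading. Cells were HCT116 carrying the p53-responsive beta-lactamase reporter, dosed 16 h at 37C, 5% CO2; CellTiter-Glo measured in parallel.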
compound,measurement,setting,value
O=C(O)CC(O)(CC(=O)O)C(=O)O,AC50,[1],inconclusive: 4.35 µM and inconclusive: 50 µM
same,AC50,[2],inconclusive: 12.5 µM and inconclusive: 50 µM
same,AC50,[3],inconclusive: 179 µM
CCc1ccccc1O,AC50,[1],inconclusive: 50 µM
same,AC50,[4],inconclusive: 19.8 µM
COc1ccc2sc(C(=O)Nc3nnn[nH]3)c(OC(C)C)c2c1,AC50,[1],inconclusive: 11.4 µM and inconclusive: 49.8 µM
same,AC50,[5],active: 13.2 µM
same,outcome,[6],inactive
same,AC50,[7],active: 17.8 µM
same,AC50,[8],active: 14.3 µM
O=Cc1ccccc1O,AC50,[1],inconclusive: 1.15 µM
same,AC50,[5],inconclusive: 46.1 µM
same,AC50,[6],inconclusive: 46.1 µM
same,AC50,[7],inconclusive: 46.1 µM
same,outcome,[7],inactive
same,outcome,[9],inactive
same,AC50,[8],inconclusive: 0.0177 µM
same,outcome,[8],inactive
same,AC50,[10],inconclusive: 80 µM
same,AC50,[11],inconclusive: 84.9 µM
same,AC50,[12],inconclusive: 46.1 µM
c1ccc(B(c2ccccc2)c2ccccc2)cc1,outcome,[1],inactive
same,outcome,[5],inactive
same,AC50,[6],inconclusive: 46 µM
same,AC50,[9],inconclusive: 46 µM
same,outcome,[8],inactive
same,outcome,[10],inactive
same,outcome,[11],inactive
COc1ccc(OC(F)(F)F)cc1CN[C@H]1CCCN[C@H]1c1ccccc1,AC50,[1],inconclusive: 87.9 µM and inconclusive: 91.2 µM
same,AC50,[5],active: 69.3 µM
same,outcome,[6],inactive
same,outcome,[7],inactive
same,AC50,[9],inconclusive: 46.1 µM
same,AC50,[8],active: 62.1 µM
same,AC50,[12],active: 82.3 µM
Cc1ccc(C(C)(C)C)cc1,outcome,[1],inactive
same,AC50,[5],inconclusive: 46.1 µM and inconclusive: 46.3 µM
same,AC50,[7],inconclusive: 46.1 µM and inconclusive: 46.3 µM
same,outcome,[9],inactive
same,AC50,[8],inconclusive: 87.1 µM and inconclusive: 46.3 µM
same,AC50,[10],inconclusive: 46.1 µM
same,AC50,[11],inconclusive: 46.1 µM
same,AC50,[12],inconclusive: 46.3 µM

# Fetched one by one from the list above (four):
compound,measurement,setting,value
Cc1ccc(C(C)(C)C)cc1,AC50,[11],inconclusive: 46.1 µM
COc1ccc2sc(C(=O)Nc3nnn[nH]3)c(OC(C)C)c2c1,AC50,[8],active: 14.3 µM
COc1ccc(OC(F)(F)F)cc1CN[C@H]1CCCN[C@H]1c1ccccc1,AC50,[9],inconclusive: 46.1 µM
c1ccc(B(c2ccccc2)c2ccccc2)cc1,outcome,[11],inactive
